The record followed here is paper doi:10.1101/2024.10.03.616509.

Chains of the proteins cited; added tags and fusions are not shown.
UniProt Q9Y4E1: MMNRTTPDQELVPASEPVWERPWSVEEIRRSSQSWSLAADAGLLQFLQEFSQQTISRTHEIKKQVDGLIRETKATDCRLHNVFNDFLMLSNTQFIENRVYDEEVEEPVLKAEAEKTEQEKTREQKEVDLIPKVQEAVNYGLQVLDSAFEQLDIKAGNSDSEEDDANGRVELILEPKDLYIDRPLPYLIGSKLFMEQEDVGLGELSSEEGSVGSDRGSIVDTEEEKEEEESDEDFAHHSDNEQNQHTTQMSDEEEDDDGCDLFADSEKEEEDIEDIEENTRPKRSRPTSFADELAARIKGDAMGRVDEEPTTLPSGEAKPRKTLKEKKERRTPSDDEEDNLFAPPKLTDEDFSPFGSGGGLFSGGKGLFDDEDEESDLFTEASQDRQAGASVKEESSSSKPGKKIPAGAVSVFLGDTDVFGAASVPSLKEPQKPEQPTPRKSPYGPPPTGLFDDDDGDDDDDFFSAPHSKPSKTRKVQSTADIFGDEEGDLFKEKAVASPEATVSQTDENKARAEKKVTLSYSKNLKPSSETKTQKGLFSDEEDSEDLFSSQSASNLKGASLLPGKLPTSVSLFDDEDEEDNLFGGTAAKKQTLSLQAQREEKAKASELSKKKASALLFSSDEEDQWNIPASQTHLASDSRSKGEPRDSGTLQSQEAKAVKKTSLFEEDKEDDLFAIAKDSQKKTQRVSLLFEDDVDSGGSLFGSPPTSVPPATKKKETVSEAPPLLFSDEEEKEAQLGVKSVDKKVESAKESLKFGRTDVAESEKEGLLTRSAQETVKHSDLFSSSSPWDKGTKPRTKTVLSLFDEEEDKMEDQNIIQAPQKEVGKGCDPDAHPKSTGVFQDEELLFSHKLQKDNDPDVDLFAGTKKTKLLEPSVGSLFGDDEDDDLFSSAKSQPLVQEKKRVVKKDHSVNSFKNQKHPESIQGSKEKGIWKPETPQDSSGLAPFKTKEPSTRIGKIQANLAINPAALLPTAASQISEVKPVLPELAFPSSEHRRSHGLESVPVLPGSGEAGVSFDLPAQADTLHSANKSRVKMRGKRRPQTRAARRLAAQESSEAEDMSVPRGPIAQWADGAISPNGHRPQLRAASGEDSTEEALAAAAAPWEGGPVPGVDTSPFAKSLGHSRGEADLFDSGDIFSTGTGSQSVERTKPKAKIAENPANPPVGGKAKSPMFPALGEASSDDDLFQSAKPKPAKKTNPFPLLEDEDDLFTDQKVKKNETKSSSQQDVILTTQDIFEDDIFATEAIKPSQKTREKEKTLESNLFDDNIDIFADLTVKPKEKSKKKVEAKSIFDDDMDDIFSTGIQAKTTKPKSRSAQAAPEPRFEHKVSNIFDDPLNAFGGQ

For test [1], the target named is T1, FLAG-TECPR2 (R1336W) (human) (UniProt O15040).
T1 sequence: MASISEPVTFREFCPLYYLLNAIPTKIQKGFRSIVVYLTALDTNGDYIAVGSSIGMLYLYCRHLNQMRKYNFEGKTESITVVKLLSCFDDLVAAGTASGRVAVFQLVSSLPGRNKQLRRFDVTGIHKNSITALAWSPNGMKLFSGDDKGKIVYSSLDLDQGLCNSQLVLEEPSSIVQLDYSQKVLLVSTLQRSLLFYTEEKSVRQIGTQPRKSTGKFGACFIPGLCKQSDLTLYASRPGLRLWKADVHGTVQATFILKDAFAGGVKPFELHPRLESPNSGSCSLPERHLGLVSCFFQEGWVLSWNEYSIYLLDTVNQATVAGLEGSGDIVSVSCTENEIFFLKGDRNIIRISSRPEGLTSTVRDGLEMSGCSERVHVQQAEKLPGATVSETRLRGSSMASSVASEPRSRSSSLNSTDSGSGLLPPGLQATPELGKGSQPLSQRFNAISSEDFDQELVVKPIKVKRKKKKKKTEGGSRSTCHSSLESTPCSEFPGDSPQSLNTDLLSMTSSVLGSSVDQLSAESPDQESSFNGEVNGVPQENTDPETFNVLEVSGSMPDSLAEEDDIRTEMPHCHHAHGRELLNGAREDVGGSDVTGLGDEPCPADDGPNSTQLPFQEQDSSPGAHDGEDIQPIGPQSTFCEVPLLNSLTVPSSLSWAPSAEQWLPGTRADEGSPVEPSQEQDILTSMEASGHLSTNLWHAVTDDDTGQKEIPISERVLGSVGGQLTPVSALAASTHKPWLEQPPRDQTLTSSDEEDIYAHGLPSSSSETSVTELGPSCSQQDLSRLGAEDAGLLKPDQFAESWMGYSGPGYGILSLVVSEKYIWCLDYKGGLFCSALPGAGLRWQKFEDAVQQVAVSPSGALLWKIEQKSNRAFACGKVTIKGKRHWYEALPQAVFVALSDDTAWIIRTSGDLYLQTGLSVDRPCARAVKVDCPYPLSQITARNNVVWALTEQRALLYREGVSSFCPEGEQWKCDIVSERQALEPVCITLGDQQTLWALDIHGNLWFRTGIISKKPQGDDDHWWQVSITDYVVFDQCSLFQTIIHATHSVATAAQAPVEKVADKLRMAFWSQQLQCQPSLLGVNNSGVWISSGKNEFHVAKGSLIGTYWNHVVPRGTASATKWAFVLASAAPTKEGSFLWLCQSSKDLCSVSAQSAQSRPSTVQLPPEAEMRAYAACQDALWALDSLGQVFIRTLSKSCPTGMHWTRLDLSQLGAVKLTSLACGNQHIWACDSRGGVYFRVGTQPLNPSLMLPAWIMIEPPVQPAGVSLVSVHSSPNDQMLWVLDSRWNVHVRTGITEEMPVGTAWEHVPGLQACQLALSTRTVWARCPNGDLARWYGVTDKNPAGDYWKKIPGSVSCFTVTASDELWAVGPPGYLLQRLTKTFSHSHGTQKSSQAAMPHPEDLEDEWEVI
Briefly: co-IP.

The target in a further test is T2, FLAG-TECPR2 (WT) (human) (UniProt O15040).
T2 sequence: T1 sequence with W1336R
The test can be described thus: co-IP.

Changes are numbered by the printed parent chain. No constants are given. Whether binding was seen depends on the method and setting. In cells and extracts the contact can be indirect. Some entries that bind do so weakly or less than the wild type. Sequences can lack the tags named with a protein.

Take FAM21C (from UniProt Q9Y4E1 1-1341): the binding result (in test [1]; in the test with FLAG-TECPR2 (WT) (human)) was “binds” in each case.
